{"sequences": {"note": "By UniProt entry, the sequences of proteins in these tests, tags left out. Where a name states a change or a piece, a line headed by the entry shows the natural chain unless it says otherwise.", "UniProt P0A0I7": "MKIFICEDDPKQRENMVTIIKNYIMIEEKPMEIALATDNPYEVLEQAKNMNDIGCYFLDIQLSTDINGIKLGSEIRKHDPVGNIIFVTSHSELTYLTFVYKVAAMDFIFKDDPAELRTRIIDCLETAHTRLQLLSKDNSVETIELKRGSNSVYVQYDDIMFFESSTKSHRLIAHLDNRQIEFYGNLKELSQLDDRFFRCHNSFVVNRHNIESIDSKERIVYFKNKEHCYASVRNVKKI"}, "source": "patent US20250376472A1", "about": "“3-(PHENYLSULFONYL)-[1,2,3]TRIAZOLO[1,5A]QUINAZOLIN-5(4H)-ONE DERIVATIVES” (priority 2022, published 2025)", "note": "At least one structure is not confirmed: it was looked up by name or label, or the drawing left a doubt. Some entries repeat one wording, which the source may state once for all of them."}
{"molecular_target": "T1, AgrA (Staphylococcus aureus, UniProt P0A0I7)", "T1 construct": "endogenous in cells; host or cells: S. aureus USA300 strain UAMS-1625 carrying a P3-lacZ reporter plasmid", "assay_type": "cell-based, S. aureus", "conditions": "40 mg/mL HSA versus no HSA", "procedure": "The inventive compounds are 3-(phenylsulfonyl)-[1,2,3]triazolo[1,5a]quinazolin-5(4h)-one derivatives comprising an N-bound piperazine or homopiperazine at the 8-position of the [1,2,3]triazolo[1,5a]quinazolin-5(4h)-one core, further substituted (on the second nitrogen atom) by an (optionally substituted) acetyl or propionyl amide group. […] Specifically, the reporter gene lacZ (which encodes the protein product β-galactosidase) was transfected into S. aureus with a plasmid under control of the P3 promoter. The compounds were serially diluted in lysogeny broth (LB), and incubated with S. aureus. Following incubation, the S. aureus cells were lysed and treated with 4-methylumbelliferyl-galactopyranoside (MUG). The β-galactosidase produced by expression of lacZ cleaved the MUG into galactopyranose and 4-methylumbelliferone, which was measured by fluorescence.\nThe resulting reporter strain was used to measure AgrA inhibitory activity as follows. From an overnight culture plate, cells were resuspended in 0.9% (w/v) saline solution and bacterial inoculum was prepared in LB medium with 5×10^5 CFU/ml. Compounds were two-fold serially diluted in LB and 50 μL of this 10× concentrated samples were added into the 96-deep well plate. 500 μL of bacterial suspension was finally added to the compounds or DMSO control. Plates were covered and incubated with shaking at 37° C. After 18 hours incubation, 100 μL was transferred to a new clear 96-well plate and the OD600 was measured using a TECAN Infinite F200 microplate reader to control for growth inhibition. Another 100 μL was transferred to a new black 96-well plate containing 30 μL of lysis buffer (20 mM Tris/HCl, 3 mM MgCl2, 0.5% Tween 20 (v/v), 0.5% NP-40 (v/v)) and the plate was incubated with shaking at 37° C. for 60 min. 20 μL of the substrate MUG (4-Methylumbelliferyl O-D-galactopyranoside) at 0.25 mg/ml was added and the fluorescence (excitation: 360 nm, emission: 450 mu) was measured with a TECAN Infinite F200 microplate reader after 3 hours incubation at 37° C. with shaking. The IC50 was determined using GraphPad PRISM after normalization to DMSO control."}
{"smiles": "Cc1ccc(S(=O)(=O)c2nnn3c2[nH]c(=O)c2ccc(N4CCN(CC(=O)NCCCN5CCOCC5)CC4)cc23)c(C)c1", "note": "[Compound 92]", "Ratio IC50 (in presence of HSA)/IC50 (in absence of HSA)": "+++ (+++: ratio ≤ 25)"}
{"smiles": "Cc1ccc(S(=O)(=O)c2nnn3c2[nH]c(=O)c2ccc(N4CCN(CC(=O)N5CCCCC5CN)CC4)cc23)c(C)c1", "note": "(stereo not drawn) [Compound 145]", "Ratio IC50 (in presence of HSA)/IC50 (in absence of HSA)": "+++ (+++: ratio ≤ 25)"}
{"smiles": "Cc1ccc(S(=O)(=O)c2nnn3c2[nH]c(=O)c2ccc(N4CCN(CC(=O)N5CCC6(CCCC6)C5)CC4)cc23)c(C)c1", "note": "[Compound 126]", "Ratio IC50 (in presence of HSA)/IC50 (in absence of HSA)": "++ (++: 25 < ratio ≤ 125)"}
{"smiles": "Cc1ccc(S(=O)(=O)c2nnn3c2[nH]c(=O)c2ccc(N4CCN(CC(=O)NCCc5ccncc5)CC4)cc23)c(C)c1", "note": "[Compound 175]", "Ratio IC50 (in presence of HSA)/IC50 (in absence of HSA)": "++ (++: 25 < ratio ≤ 125)"}
{"smiles": "Cc1ccc(S(=O)(=O)c2nnn3c2[nH]c(=O)c2ccc(N4CCN(CC(=O)NC(C)C)CC4)cc23)c(C)c1", "note": "[Compound 6]", "Ratio IC50 (in presence of HSA)/IC50 (in absence of HSA)": "++ (++: 25 < ratio ≤ 125)"}
{"smiles": "Cc1ccc(S(=O)(=O)c2nnn3c2[nH]c(=O)c2ccc(N4CCN(CC(=O)N5CCNC(=O)C5)CC4)cc23)c(C)c1", "note": "[Compound 62]", "Ratio IC50 (in presence of HSA)/IC50 (in absence of HSA)": "+++ (+++: ratio ≤ 25)"}
{"smiles": "Cc1ccc(S(=O)(=O)c2nnn3c2[nH]c(=O)c2ccc(N4CCN(CC(=O)NCc5cccnc5)CC4)cc23)c(C)c1", "note": "[Compound 111]", "Ratio IC50 (in presence of HSA)/IC50 (in absence of HSA)": "+++ (+++: ratio ≤ 25)"}
{"smiles": "Cc1ccc(S(=O)(=O)c2nnn3c2[nH]c(=O)c2ccc(N4CCCN(CC(=O)Nc5ccccc5)CC4)cc23)c(C)c1", "note": "[Compound 122]", "Ratio IC50 (in presence of HSA)/IC50 (in absence of HSA)": "+++ (+++: ratio ≤ 25)"}
{"smiles": "Cc1ccc(S(=O)(=O)c2nnn3c2[nH]c(=O)c2ccc(N4CCN(CC(=O)NCC5CC5)CC4)cc23)c(C)c1", "note": "[Compound 36]", "Ratio IC50 (in presence of HSA)/IC50 (in absence of HSA)": "++ (++: 25 < ratio ≤ 125)"}
{"smiles": "CCNC(=O)CN1CCN(c2ccc3c(=O)[nH]c4c(S(=O)(=O)c5ccc(C)cc5C)nnn4c3c2)CC1", "note": "[Compound 4]", "Ratio IC50 (in presence of HSA)/IC50 (in absence of HSA)": "++ (++: 25 < ratio ≤ 125)"}
{"smiles": "Cc1ccc(S(=O)(=O)c2nnn3c2[nH]c(=O)c2ccc(N4CCCN(CC(=O)N5CCNCC5)CC4)cc23)c(C)c1", "note": "[Compound 161]", "Ratio IC50 (in presence of HSA)/IC50 (in absence of HSA)": "+++ (+++: ratio ≤ 25)"}
{"smiles": "Cc1ccc(S(=O)(=O)c2nnn3c2[nH]c(=O)c2ccc(N4CCN(CC(=O)NCCc5cccs5)CC4)cc23)c(C)c1", "note": "[Compound 116]", "Ratio IC50 (in presence of HSA)/IC50 (in absence of HSA)": "++ (++: 25 < ratio ≤ 125)"}
{"smiles": "Cc1ccc(S(=O)(=O)c2nnn3c2[nH]c(=O)c2ccc(N4CCN(CC(=O)NC5CCCC5)CC4)cc23)c(C)c1", "note": "[Compound 35]", "Ratio IC50 (in presence of HSA)/IC50 (in absence of HSA)": "+++ (+++: ratio ≤ 25)"}
{"smiles": "Cc1ccc(S(=O)(=O)c2nnn3c2[nH]c(=O)c2ccc(N4CCN(CC(=O)N5CCCC(CN)C5)CC4)cc23)c(C)c1", "note": "(stereo not drawn) [Compound 144]", "Ratio IC50 (in presence of HSA)/IC50 (in absence of HSA)": "+++ (+++: ratio ≤ 25)"}
{"smiles": "Cc1ccc(S(=O)(=O)c2nnn3c2[nH]c(=O)c2ccc(N4CCN(CC(=O)NCCOCCOCCO)CC4)cc23)c(C)c1", "note": "[Compound 22]", "Ratio IC50 (in presence of HSA)/IC50 (in absence of HSA)": "+++ (+++: ratio ≤ 25)"}
{"smiles": "CSCCNC(=O)CN1CCN(c2ccc3c(=O)[nH]c4c(S(=O)(=O)c5ccc(C)cc5C)nnn4c3c2)CC1", "note": "[Compound 18]", "Ratio IC50 (in presence of HSA)/IC50 (in absence of HSA)": "++ (++: 25 < ratio ≤ 125)"}
{"smiles": "Cc1ccc(S(=O)(=O)c2nnn3c2[nH]c(=O)c2ccc(N4CCN(CC(=O)NC5CCCNC5)CC4)cc23)c(C)c1", "note": "(stereo not drawn) [Compound 142]", "Ratio IC50 (in presence of HSA)/IC50 (in absence of HSA)": "+++ (+++: ratio ≤ 25)"}
{"smiles": "Cc1ccc(S(=O)(=O)c2nnn3c2[nH]c(=O)c2ccc(N4CCN(CC(=O)N(C)C5CCCCC5)CC4)cc23)c(C)c1", "note": "[Compound 39]", "Ratio IC50 (in presence of HSA)/IC50 (in absence of HSA)": "+++ (+++: ratio ≤ 25)"}
{"smiles": "Cc1ccc(S(=O)(=O)c2nnn3c2[nH]c(=O)c2ccc(N4CCN(CC(=O)N5C[C@H]6CNC[C@H]6C5)CC4)cc23)c(C)c1", "note": "[Compound 153]", "Ratio IC50 (in presence of HSA)/IC50 (in absence of HSA)": "+++ (+++: ratio ≤ 25)"}
{"smiles": "Cc1ccc(S(=O)(=O)c2nnn3c2[nH]c(=O)c2ccc(N4CCN(CC(=O)NC5CCNC5)CC4)cc23)c(C)c1", "note": "(stereo not drawn) [Compound 136]", "Ratio IC50 (in presence of HSA)/IC50 (in absence of HSA)": "+++ (+++: ratio ≤ 25)"}
{"smiles": "COCCCNC(=O)CN1CCN(c2ccc3c(=O)[nH]c4c(S(=O)(=O)c5ccc(C)cc5C)nnn4c3c2)CC1", "note": "[Compound 17]", "Ratio IC50 (in presence of HSA)/IC50 (in absence of HSA)": "++ (++: 25 < ratio ≤ 125)"}
{"smiles": "Cc1ccc(S(=O)(=O)c2nnn3c2[nH]c(=O)c2ccc(N4CCN(CC(=O)NCCCC5CCCCC5)CC4)cc23)c(C)c1", "note": "[Compound 44]", "Ratio IC50 (in presence of HSA)/IC50 (in absence of HSA)": "+++ (+++: ratio ≤ 25)"}
{"smiles": "Cc1ccc(S(=O)(=O)c2nnn3c2[nH]c(=O)c2ccc(N4CCN(CC(=O)NC5CCC(O)CC5)CC4)cc23)c(C)c1", "note": "(stereo not drawn) [Compound 43]", "Ratio IC50 (in presence of HSA)/IC50 (in absence of HSA)": "+++ (+++: ratio ≤ 25)"}
{"smiles": "Cc1ccc(S(=O)(=O)c2nnn3c2[nH]c(=O)c2ccc(N4CCN(CC(=O)N5CCCC(=O)CC5)CC4)cc23)c(C)c1", "note": "[Compound 72]", "Ratio IC50 (in presence of HSA)/IC50 (in absence of HSA)": "+++ (+++: ratio ≤ 25)"}
{"smiles": "Cc1ccc(S(=O)(=O)c2nnn3c2[nH]c(=O)c2ccc(N4CCN(CC(=O)N5CCCCC5)CC4)cc23)c(C)c1", "note": "[Compound 55]", "Ratio IC50 (in presence of HSA)/IC50 (in absence of HSA)": "++ (++: 25 < ratio ≤ 125)"}
{"smiles": "Cc1ccc(S(=O)(=O)c2nnn3c2[nH]c(=O)c2ccc(N4CCN(CC(=O)NC5CCC5)CC4)cc23)c(C)c1", "note": "[Compound 34]", "Ratio IC50 (in presence of HSA)/IC50 (in absence of HSA)": "+++ (+++: ratio ≤ 25)"}
{"smiles": "Cc1ccc(S(=O)(=O)c2nnn3c2[nH]c(=O)c2ccc(N4CCN(CC(=O)N5CCNCC5)CC4)cc23)c(C)c1", "note": "[Compound 134]", "Ratio IC50 (in presence of HSA)/IC50 (in absence of HSA)": "+++ (+++: ratio ≤ 25)"}
{"smiles": "Cc1ccc(S(=O)(=O)c2nnn3c2[nH]c(=O)c2ccc(N4CCN(CC(=O)NCCc5ccccc5)CC4)cc23)c(C)c1", "note": "[Compound 109]", "Ratio IC50 (in presence of HSA)/IC50 (in absence of HSA)": "++ (++: 25 < ratio ≤ 125)"}
{"smiles": "Cc1ccc(S(=O)(=O)c2nnn3c2[nH]c(=O)c2ccc(N4CCN(CC(=O)NC5CCCCC5)CC4)cc23)c(C)c1", "note": "[Compound 38]", "Ratio IC50 (in presence of HSA)/IC50 (in absence of HSA)": "+++ (+++: ratio ≤ 25)"}
{"smiles": "Cc1ccc(S(=O)(=O)c2nnn3c2[nH]c(=O)c2ccc(N4CCN(CC(=O)NCCC(C)C)CC4)cc23)c(C)c1", "note": "[Compound 11]", "Ratio IC50 (in presence of HSA)/IC50 (in absence of HSA)": "++ (++: 25 < ratio ≤ 125)"}
{"smiles": "Cc1ccc(S(=O)(=O)c2nnn3c2[nH]c(=O)c2ccc(N4CCN(CC(=O)N5CCN6CCCC6C5)CC4)cc23)c(C)c1", "note": "(stereo not drawn) [Compound 130]", "Ratio IC50 (in presence of HSA)/IC50 (in absence of HSA)": "+++ (+++: ratio ≤ 25)"}
{"smiles": "Cc1ccc(S(=O)(=O)c2nnn3c2[nH]c(=O)c2ccc(N4CCN(CC(=O)N5CCCC(O)C5)CC4)cc23)c(C)c1", "note": "(stereo not drawn) [Compound 67]", "Ratio IC50 (in presence of HSA)/IC50 (in absence of HSA)": "+++ (+++: ratio ≤ 25)"}
{"smiles": "Cc1ccc(S(=O)(=O)c2nnn3c2[nH]c(=O)c2ccc(N4CCN(CC(=O)NCCCN5CCCC5=O)CC4)cc23)c(C)c1", "note": "[Compound 97]", "Ratio IC50 (in presence of HSA)/IC50 (in absence of HSA)": "+++ (+++: ratio ≤ 25)"}
{"smiles": "Cc1ccc(S(=O)(=O)c2nnn3c2[nH]c(=O)c2ccc(N4CCN(CC(=O)N5CCC(N(C)C)CC5)CC4)cc23)c(C)c1", "note": "[Compound 65]", "Ratio IC50 (in presence of HSA)/IC50 (in absence of HSA)": "+++ (+++: ratio ≤ 25)"}
{"smiles": "Cc1ccc(S(=O)(=O)c2nnn3c2[nH]c(=O)c2ccc(N4CCN(CC(=O)N5CCCC6(CCN(C)CC6)C5)CC4)cc23)c(C)c1", "note": "[Compound 128]", "Ratio IC50 (in presence of HSA)/IC50 (in absence of HSA)": "+++ (+++: ratio ≤ 25)"}
{"smiles": "Cc1ccc(S(=O)(=O)c2nnn3c2[nH]c(=O)c2ccc(N4CCN(CC(=O)NC5CNC5)CC4)cc23)c(C)c1", "note": "[Compound 138]", "Ratio IC50 (in presence of HSA)/IC50 (in absence of HSA)": "+++ (+++: ratio ≤ 25)"}
